Values from PubChem BioAssay AID1259327 (Drosophila RNAi Screening Center, 2017)
Assay: 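Data from controls in screens of zinc and manganese toxicity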. Cell system: Drosophila S2R+ cells. Reagent: long dsRNA against Drosophila genes. Time to read-out: 5 days (water added on day 4, read one day later). Conditions: water added as vehicle, no metal, one day before read-out. Measured: 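Luciferase ATP signal per well, normalised to plate mean, duplicate average converted to z-score across plates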. Scale: ATP z-score: higher = more total ATP than typical wells; ATP luminescence: higher = more total ATP. Rule for the call: 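a hit is any knock-down whose absolute ATP z-score is greater than 1.5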. Meaning of the calls: active = hit: ATP up or down; inactive = no clear ATP change.
Shown is a random part of about 3,100 deposited reagents. 378 of them (12%) were called active. 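Hits include both directions; z-score sign shows ATP rise or fall; raw luminescence values are not plate-normalised.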 Entries without a mark were called inactive. Reagents against one gene are numbered here. A plus sign joins genes that one reagent is predicted to hit. The record does not give: the amount of reagent.

gene,dsRNA no.,"ATP z-score, duplicate mean","ATP luminescence, replicate 1 (RLU)","ATP luminescence, replicate 2 (RLU)"
PMP34 (GeneID 38532),1,0.741,6.32e5,6.53e5
PMP34 (GeneID 38532),2,-1.1,3.86e5,3.75e5
Ostgamma (GeneID 34137),1,,5.32e5,4.39e5
Ostgamma (GeneID 34137),2,-0.0772,4.35e5,4.60e5
Or23a (GeneID 33450),1,-0.979,5.86e5,6.23e5
Or23a (GeneID 33450),2,0.665,5.20e5,5.01e5
ND-MWFE (GeneID 5740593),1,-0.714,6.66e5,6.64e5
Osi20 (GeneID 40777),1,-0.688,8.34e5,7.78e5
Osi20 (GeneID 40777),2,-0.487,7.98e5,7.33e5
Hgsnat (GeneID 31423),1,0.445,7.59e5,7.45e5
Hgsnat (GeneID 31423),2,-0.481,8.04e5,7.77e5
Gr23a (GeneID 33453),1,0.715,7.39e5,8.19e5
Gr23a (GeneID 33453),2,-0.37,8.94e5,1.02e6
SdhD (GeneID 42808),1,-0.702,2.60e5,7.06e5
SdhD (GeneID 42808),2,0.0993,4.59e5,5.14e5
Gr10a (GeneID 117501),1,0.997,6.05e5,7.24e5
Gr10a (GeneID 117501),2,1.44,9.92e5,1.07e6
CG6927 (GeneID 31419),1,0.557,7.75e5,7.52e5
CG6927 (GeneID 31419),2,0.253,5.05e5,4.59e5
CCHa2-R (GeneID 35535),1,-0.562,4.90e5,6.47e5
CCHa2-R (GeneID 35535),2,-0.381,5.17e5,6.53e5
ppk27 (GeneID 38440),1,-0.68,6.01e5,4.42e5
CG15553 (GeneID 43677),1,-0.697,6.54e5,6.38e5
CG15553 (GeneID 43677),2,-0.901,4.34e5,3.73e5
Sema1a (GeneID 34192),1,-0.361,7.07e5,6.69e5
wls (GeneID 39259),1,-2.46 (active),4.96e5,4.40e5
wls (GeneID 39259),2,0.402,8.79e5,8.63e5
frac (GeneID 38850),1,0.519,8.30e5,7.41e5
frac (GeneID 38850),2,0.582,9.66e5,8.26e5
Tsp3A (GeneID 31244),1,0.288,7.52e5,7.22e5
Tsp3A (GeneID 31244),2,-0.391,8.13e5,7.90e5
Sec61gamma (GeneID 32968),1,0.932,8.17e5,8.72e5
Sec61gamma (GeneID 32968),2,1.98 (active),8.19e5,9.50e5
ppk3 (GeneID 246504),1,1.27,8.78e5,8.45e5
ppk3 (GeneID 246504),2,0.191,9.80e5,7.67e5
Or33c (GeneID 34603),1,0.569,7.70e5,8.02e5
ppk23 (GeneID 32731),1,0.338,7.58e5,8.01e5
ppk23 (GeneID 32731),2,-0.827,9.54e5,1.03e6
CG32206 (GeneID 40105),1,-0.802,7.74e5,8.07e5
CG32206 (GeneID 40105),2,0.525,6.64e5,9.44e5
hoe1 (GeneID 249663),1,0.773,5.09e5,5.59e5
hoe1 (GeneID 249663),2,-1.21,5.95e5,6.01e5
PIG-M + CG42380 + CG42379 + 1 more,1,-1.23,5.94e5,6.26e5
PIG-M + CG42380 + CG42379 + 1 more,2,0.705,7.82e5,8.31e5
Ir93a (GeneID 42471),1,1.05,7.88e5,8.38e5
Ir93a (GeneID 42471),2,0.0645,9.83e5,1.03e6
Tmtc2 (GeneID 33276),1,-0.568,8.47e5,6.70e5
GluRIID (GeneID 44483),1,-1.1,2.65e5,6.04e5
GluRIID (GeneID 44483),2,-0.41,7.94e5,8.04e5
Sras (GeneID 44002),1,-0.216,8.87e5,8.49e5
rdog (GeneID 43450),1,0.788,7.82e5,7.92e5
rdog (GeneID 43450),2,-0.408,9.55e5,1.09e6
Sys1 (GeneID 41023),1,0.109,3.21e5,7.31e5
Elovl7 (GeneID 40943),1,0.272,3.12e5,7.89e5
Elovl7 (GeneID 40943),2,4.33 (active),9.47e5,9.46e5
Elovl7 (GeneID 40943),3,0.0659,8.52e5,8.11e5
O-fut1 (GeneID 36564),1,-2.38 (active),4.92e5,4.62e5
O-fut1 (GeneID 36564),2,-0.621,4.27e5,4.18e5
Or35a (GeneID 34918),1,-0.33,7.18e5,6.65e5
Or35a (GeneID 34918),2,-0.171,5.25e5,3.63e5
CG6052 (GeneID 39971),1,0.206,9.69e5,8.79e5
Surf4 (GeneID 41864),1,-0.188,3.09e5,6.96e5
Surf4 (GeneID 41864),2,-2.01 (active),4.69e5,3.50e5
CG1998 (GeneID 32300),1,0.391,6.30e5,6.95e5
CG1998 (GeneID 32300),2,-1.56 (active),3.91e5,5.19e5
Ir94d (GeneID 7354412),1,-0.0892,5.60e5,5.84e5
Oatp58Dc (GeneID 37545),1,0.356,6.85e5,8.56e5
Oatp58Dc (GeneID 37545),2,0.218,4.44e5,5.17e5

As entered above.
Entry of GluRIID (GeneID 44483) #1 under “ATP z-score, duplicate mean”: -1.1
CG32206 (GeneID 40105) #1, ATP luminescence, replicate 2 (RLU) → 8.07e5
Under “ATP luminescence, replicate 1 (RLU)”, frac (GeneID 38850) #1 shows 8.30e5
Under “ATP luminescence, replicate 1 (RLU)”, Gr23a (GeneID 33453) #2 has 8.94e5
Under “ATP luminescence, replicate 1 (RLU)”, ppk3 (GeneID 246504) #2 has 9.80e5
Under “ATP luminescence, replicate 1 (RLU)”, Gr23a (GeneID 33453) #1 shows 7.39e5
